Measurements published in article doi:10.1101/061564.
No constants are given. Whether binding was seen depends on the method and setting.

Key:
[1] = target: T1, ELF3-7Q (variant in Col) (Arabidopsis thaliana) (UniProt O82804); experiment: two-hybrid
T1 sequence: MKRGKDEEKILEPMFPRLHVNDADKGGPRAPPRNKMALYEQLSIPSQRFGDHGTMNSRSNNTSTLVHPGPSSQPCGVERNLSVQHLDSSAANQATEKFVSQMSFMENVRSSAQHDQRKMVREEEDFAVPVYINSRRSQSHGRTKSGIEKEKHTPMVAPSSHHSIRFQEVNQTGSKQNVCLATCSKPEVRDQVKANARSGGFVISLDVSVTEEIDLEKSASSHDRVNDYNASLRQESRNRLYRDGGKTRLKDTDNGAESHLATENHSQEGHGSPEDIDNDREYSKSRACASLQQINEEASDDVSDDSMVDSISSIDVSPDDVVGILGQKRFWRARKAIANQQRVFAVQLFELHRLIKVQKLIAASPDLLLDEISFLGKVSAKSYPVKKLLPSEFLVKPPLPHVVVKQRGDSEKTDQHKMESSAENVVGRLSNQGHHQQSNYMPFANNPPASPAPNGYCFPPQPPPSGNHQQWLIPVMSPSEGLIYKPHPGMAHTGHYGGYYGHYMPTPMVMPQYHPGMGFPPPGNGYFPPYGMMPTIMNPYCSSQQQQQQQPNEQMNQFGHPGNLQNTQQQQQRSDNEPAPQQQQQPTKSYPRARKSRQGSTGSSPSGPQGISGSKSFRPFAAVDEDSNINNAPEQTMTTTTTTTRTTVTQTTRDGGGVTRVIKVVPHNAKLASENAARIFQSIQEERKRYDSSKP

[2] = target: T2, ELF3-7Q (variant in Col) (Arabidopsis thaliana), O82804; experiment: two-hybrid; details: remark: other sources report otherwise
T2 chain: T1 sequence

B1: LSH9 (LIGHT-… SHORT HYPOCOTYLS 9), Col variant (protein, UniProt Q9SN52 1-191)
chain: MSSDRHTPTKDPPDHPSSSSNHHKQPLPPQPQQPLSRYESQKRRDWNTFVQYLKSQNPPLMMSQFDYTHVLSFLRYLDQFGKTKVHHQACVFFGQPDPPGPCTCPLKQAWGSLDALIGRLRAAYEEHGGGSPDTNPFANGSIRVHLREVRESQAKARGIPYRKKKRRKTKNEVVVVKKDVANSSTPNQSFT
binding [1]: no binding

B2: Phytochrome Interacting Factor 4, Q8W2F3 1-430 (protein)
chain: MEHQGWSFEENYSLSTNRRSIRPQDELVELLWRDGQVVLQSQTHREQTQTQKQDHHEEALRSSTFLEDQETVSWIQYPPDEDPFEPDDFSSHFFSTMDPLQRPTSETVKPKSSPEPPQVMVKPKACPDPPPQVMPPPKFRLTNSSSGIRETEMEQYSVTTVGPSHCGSNPSQNDLDVSMSHDRSKNIEEKLNPNASSSSGGSSGCSFGKDIKEMASGRCITTDRKRKRINHTDESVSLSDAIGNKSNQRSGSNRRSRAAEVHNLSERRRRDRINERMKALQELIPHCSKTDKASILDEAIDYLKSLQLQLQVMWMGSGMAAAAASAPMMFPGVQPQQFIRQIQSPVQLPRFPVMDQSAIQNNPGLVCQNPVQNQIISDRFARYIGGFPHMQAATQMQPMEMLRFSSPAGQQSQQPSSVPTKTTDGSRLDH
binding [2]: no binding
